Experimental data as given in PMC7070008.

Chains of the proteins cited; added tags and fusions are not shown. Residues count along the entry.
UniProt Q6PF93: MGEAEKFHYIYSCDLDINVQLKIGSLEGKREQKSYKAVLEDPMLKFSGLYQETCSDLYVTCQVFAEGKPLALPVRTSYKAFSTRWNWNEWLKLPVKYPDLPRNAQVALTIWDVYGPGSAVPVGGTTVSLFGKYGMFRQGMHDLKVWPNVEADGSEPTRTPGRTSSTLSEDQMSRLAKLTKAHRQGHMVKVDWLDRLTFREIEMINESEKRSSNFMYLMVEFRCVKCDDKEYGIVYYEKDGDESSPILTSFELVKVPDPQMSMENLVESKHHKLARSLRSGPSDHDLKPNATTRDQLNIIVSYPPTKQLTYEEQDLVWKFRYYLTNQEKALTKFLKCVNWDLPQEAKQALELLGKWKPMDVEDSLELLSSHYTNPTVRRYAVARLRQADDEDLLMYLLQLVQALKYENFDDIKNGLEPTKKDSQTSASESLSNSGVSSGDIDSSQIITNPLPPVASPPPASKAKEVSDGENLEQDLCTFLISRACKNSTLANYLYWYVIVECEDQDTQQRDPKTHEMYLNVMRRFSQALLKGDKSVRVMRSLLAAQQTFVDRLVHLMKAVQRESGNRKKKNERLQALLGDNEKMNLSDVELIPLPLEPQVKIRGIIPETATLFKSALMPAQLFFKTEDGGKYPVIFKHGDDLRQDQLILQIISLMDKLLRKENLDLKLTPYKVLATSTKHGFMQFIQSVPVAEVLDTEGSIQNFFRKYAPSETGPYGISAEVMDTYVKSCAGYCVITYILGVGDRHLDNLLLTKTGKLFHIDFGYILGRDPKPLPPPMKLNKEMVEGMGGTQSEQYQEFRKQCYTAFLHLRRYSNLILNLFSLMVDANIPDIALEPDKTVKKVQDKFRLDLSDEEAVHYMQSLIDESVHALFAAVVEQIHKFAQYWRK
UniProt Q07113, residues 36-2483: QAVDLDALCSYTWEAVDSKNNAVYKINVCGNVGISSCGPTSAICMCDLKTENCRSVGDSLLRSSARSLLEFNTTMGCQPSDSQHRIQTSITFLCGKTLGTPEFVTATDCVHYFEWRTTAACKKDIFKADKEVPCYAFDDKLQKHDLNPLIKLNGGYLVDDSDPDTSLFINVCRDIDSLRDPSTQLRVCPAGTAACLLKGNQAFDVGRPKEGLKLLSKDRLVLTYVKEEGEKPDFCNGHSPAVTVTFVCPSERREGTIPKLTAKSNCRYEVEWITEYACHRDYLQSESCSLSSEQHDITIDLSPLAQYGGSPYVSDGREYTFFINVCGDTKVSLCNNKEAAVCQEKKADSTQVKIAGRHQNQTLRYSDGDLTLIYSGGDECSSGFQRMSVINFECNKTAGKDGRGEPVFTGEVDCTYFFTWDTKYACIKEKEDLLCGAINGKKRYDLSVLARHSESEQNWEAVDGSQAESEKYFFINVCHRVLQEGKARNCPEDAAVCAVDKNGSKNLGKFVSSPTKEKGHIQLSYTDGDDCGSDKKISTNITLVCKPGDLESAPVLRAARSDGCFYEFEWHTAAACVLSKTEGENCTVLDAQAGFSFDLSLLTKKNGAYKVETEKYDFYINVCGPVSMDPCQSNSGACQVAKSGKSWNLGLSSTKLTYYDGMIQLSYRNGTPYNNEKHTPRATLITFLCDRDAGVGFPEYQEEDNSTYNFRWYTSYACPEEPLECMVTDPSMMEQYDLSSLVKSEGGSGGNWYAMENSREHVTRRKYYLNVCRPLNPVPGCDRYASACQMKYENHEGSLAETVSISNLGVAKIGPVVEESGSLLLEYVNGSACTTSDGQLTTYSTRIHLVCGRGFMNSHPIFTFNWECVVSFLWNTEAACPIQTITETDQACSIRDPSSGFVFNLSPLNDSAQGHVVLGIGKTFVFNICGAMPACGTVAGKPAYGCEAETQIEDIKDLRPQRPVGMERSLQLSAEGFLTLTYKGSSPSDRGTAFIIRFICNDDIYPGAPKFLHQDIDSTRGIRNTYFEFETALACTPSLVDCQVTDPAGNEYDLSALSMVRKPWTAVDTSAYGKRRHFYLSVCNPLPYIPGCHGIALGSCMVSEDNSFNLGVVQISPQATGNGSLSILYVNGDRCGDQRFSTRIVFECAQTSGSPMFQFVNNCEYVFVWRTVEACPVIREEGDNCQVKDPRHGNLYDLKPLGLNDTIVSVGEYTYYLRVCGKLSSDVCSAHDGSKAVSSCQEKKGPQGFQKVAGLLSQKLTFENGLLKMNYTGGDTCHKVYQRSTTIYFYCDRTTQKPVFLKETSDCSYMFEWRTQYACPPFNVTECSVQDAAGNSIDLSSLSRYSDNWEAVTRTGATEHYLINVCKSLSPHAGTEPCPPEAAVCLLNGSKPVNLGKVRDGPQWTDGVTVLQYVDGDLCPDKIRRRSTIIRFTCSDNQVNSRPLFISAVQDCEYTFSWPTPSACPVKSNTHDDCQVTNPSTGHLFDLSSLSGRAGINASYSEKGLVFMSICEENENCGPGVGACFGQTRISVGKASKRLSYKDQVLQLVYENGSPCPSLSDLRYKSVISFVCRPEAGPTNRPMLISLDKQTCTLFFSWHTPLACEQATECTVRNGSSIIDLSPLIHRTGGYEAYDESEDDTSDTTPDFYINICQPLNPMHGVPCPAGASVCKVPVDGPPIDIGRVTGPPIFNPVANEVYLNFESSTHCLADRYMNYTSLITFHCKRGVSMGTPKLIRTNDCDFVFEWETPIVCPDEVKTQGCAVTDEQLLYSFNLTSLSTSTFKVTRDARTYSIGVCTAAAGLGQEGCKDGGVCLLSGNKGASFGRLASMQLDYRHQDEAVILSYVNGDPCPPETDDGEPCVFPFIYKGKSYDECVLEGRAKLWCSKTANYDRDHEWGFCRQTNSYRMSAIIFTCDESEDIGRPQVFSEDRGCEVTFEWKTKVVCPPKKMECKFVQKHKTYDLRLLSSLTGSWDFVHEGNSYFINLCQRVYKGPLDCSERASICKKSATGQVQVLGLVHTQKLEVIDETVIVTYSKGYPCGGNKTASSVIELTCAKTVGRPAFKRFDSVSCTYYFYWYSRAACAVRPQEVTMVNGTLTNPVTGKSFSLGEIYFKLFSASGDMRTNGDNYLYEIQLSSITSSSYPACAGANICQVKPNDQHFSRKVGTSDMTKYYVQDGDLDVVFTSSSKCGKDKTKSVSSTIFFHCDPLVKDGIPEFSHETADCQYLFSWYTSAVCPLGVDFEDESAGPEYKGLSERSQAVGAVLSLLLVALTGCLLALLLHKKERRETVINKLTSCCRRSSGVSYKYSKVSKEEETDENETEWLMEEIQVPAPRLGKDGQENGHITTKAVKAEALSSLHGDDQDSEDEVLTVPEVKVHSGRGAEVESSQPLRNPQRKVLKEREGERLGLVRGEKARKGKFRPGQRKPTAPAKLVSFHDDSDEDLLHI
UniProt P35569: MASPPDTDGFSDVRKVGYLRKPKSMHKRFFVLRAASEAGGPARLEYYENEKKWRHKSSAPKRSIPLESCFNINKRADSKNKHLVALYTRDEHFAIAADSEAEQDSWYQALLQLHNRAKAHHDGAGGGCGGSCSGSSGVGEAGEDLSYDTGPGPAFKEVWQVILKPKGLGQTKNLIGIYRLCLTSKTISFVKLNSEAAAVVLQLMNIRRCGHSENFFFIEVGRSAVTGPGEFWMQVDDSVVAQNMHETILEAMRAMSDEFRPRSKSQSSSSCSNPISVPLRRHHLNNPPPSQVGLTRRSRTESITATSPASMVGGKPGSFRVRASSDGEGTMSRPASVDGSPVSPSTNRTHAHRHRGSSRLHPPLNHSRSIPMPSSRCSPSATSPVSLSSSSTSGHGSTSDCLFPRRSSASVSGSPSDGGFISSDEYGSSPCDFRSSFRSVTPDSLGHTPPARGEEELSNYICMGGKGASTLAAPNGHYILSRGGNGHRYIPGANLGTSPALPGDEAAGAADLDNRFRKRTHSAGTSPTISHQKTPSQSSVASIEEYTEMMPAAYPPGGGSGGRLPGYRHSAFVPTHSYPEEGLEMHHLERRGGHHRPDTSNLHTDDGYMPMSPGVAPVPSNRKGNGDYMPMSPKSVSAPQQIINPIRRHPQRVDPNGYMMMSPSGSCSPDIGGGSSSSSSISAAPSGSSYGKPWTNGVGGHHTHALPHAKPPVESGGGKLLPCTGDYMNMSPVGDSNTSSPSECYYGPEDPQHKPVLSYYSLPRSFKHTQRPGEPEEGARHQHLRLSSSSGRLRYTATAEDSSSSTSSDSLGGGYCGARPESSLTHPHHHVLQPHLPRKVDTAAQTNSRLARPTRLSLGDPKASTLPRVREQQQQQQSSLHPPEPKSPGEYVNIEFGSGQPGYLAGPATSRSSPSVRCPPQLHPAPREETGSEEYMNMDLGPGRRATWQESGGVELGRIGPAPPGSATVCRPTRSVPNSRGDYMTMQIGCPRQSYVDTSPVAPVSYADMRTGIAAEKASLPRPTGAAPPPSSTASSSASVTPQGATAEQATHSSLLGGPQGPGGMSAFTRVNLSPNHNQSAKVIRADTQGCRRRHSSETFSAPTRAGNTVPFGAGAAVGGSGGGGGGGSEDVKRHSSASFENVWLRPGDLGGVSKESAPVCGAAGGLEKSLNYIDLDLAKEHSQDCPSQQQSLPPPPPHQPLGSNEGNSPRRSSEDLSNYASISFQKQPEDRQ
UniProt Q64727: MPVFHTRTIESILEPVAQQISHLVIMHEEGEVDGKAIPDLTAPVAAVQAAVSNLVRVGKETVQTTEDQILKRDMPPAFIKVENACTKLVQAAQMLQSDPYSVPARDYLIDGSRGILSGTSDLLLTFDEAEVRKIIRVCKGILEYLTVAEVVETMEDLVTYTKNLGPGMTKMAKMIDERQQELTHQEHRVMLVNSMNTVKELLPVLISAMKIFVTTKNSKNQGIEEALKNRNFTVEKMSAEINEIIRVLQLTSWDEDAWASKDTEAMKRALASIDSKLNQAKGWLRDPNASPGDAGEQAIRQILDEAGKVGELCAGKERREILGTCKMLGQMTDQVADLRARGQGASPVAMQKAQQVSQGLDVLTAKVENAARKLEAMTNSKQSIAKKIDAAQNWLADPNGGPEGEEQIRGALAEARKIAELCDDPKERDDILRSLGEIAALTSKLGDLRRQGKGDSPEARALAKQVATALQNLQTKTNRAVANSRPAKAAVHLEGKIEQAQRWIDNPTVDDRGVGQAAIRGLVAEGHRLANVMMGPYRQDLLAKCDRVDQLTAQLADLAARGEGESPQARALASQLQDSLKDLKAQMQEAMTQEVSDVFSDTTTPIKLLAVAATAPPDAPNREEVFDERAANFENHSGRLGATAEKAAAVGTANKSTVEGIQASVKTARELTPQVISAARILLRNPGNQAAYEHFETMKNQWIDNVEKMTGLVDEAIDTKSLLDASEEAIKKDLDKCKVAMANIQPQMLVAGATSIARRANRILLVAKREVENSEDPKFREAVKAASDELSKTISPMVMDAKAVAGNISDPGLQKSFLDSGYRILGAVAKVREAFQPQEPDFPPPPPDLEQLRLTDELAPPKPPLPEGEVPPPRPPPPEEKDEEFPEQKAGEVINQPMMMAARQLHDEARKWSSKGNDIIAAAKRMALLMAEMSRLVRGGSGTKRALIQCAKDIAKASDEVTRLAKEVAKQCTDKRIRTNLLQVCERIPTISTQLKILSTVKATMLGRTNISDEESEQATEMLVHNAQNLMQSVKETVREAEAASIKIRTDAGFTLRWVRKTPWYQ
UniProt P49817: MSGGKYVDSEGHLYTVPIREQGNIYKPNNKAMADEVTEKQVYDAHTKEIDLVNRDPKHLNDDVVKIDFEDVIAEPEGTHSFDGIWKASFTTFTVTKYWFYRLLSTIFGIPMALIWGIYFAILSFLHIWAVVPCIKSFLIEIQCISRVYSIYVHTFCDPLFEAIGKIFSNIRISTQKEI

T1: 6His-plakoglobin (UniProt P14923)
T1 sequence: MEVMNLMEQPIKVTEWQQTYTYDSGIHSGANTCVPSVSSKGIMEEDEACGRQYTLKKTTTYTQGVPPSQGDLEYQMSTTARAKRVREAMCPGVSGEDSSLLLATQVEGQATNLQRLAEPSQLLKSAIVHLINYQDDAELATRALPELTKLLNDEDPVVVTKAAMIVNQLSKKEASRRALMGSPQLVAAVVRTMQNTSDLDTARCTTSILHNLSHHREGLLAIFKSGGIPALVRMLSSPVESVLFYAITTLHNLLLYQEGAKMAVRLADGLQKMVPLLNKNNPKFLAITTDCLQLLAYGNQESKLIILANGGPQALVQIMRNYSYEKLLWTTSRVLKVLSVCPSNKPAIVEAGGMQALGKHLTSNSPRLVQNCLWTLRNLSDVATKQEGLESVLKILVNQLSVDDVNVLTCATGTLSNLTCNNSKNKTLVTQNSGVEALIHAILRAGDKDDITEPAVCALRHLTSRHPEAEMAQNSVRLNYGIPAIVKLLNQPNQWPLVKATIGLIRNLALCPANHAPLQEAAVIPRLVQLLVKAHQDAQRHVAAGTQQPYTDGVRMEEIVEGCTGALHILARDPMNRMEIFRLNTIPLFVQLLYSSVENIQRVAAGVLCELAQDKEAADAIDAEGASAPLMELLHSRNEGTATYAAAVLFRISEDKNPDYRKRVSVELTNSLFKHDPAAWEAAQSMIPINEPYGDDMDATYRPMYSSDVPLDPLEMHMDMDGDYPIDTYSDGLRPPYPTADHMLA


target: T1, 6His-plakoglobin; experiment: affinity purification with mass spectrometry; 6His-plakoglobin electroporated into mouse TA muscle, whole-cell extracts on Ni beads, histidine gradient, fraction #2 analysed by mass spectrometry

binding	Molecule
binds	dystrophin (from UniProt P11531 1-3678)
binds	β-syntrophin
binds	insulin-like growth factor-binding protein
binds	catalytic subunit of PI3K, type 3 (from UniProt Q6PF93 1-887) (enzyme)
binds	α-1-syntrophin (protein, UniProt Q61234 1-503) MASGRRAPRTGLLELRCGAGSGAGGERWQRVLLSLAEDALTVSPADGEPGPEPEPAQLNGAAEPGAAPPQLPEALLLQRRRVTVRKADAGGLGISIKGGRENKMPILISKIFKGLAADQTEALFVGDAILSVNGEDLSSATHDEAVQALKKTGKEVVLEVKYMKEVSPYFKNSAGGTSVGWDSPPASPLQRQPSSPGPQPRNLSEAKHVSLKMAYVSRRCTPTDPEPRYLEICAADGQDAVFLRAKDEASARSWAGAIQAQIGTFIPWVKDELQALLTATGTAGSQDIKQIGWLTEQLPSGGTAPTLALLTEKELLFYCSLPQSREALSRPTRTAPLIATSSAHRLVHSGPSKGSVPYDAELSFALRTGTRHGVDTHLFSVESPQELAAWTRQLVDGCHRAAEGIQEVSTACTWNGRPCSLSVHIDKGFTLWAAEPGAARAMLLRQPFEKLQMSSDDGTSLLFLDFGGAEGEIQLDLHSCPKTMVFIIHSFLSAKVTRLGLLA
binds	γ-sarcoglycan (protein, UniProt P82348 1-291) MVREQYTTVTEGTHIERPENQHIYKIGIYGWRKRCLYLFVLLLLAILVVNLALTIWILKVMWFSPIGMGHLHVTADGLRLEGESEFLFPLYAKEIRSRVDSSLLLQSTQNVTVSARNSEGEVTGRVKVGAQMVEVQSQHFQINSEDGKPLFSAEEQDVVVGTGRLRVTGPEGALFEHSVETPLVRADPFQDLRLESPTRSLSMDAPRGVHVKANAGKLEALSQMDIILQSSEGVLVLDAETVGLTKLKQGTQGPAGSSNGFYEICACPDGKLYLSMAGEVTTCEEHSHVCL

The next lines start with the molecule.

Molecule	binding
insulin-like growth factor 2 receptor (from UniProt Q07113 36-2483)	binds
insulin receptor substrate 1 (from UniProt P35569 1-1233)	binds
vinculin (from UniProt Q64727 1-1066)	binds
p85 regulatory subunit of PI3K	binds
catalytic subunit of PI3K, gamma (from UniProt Q9JHG7 1-1102) (enzyme)	binds
caveolin-1 (from UniProt P49817 1-178)	binds
β-dystroglycan (protein, UniProt Q62165 652-893, glycosylated form detected (glycosylated β-dystroglycan)) SIVVEWTNNTLPLEPCPKEQIIGLSRRIADENGKPRPAFSNALEPDFKALSIAVTGSGSCRHLQFIPVAPPSPGSSAAPATEVPDRDPEKSSEDDVYLHTVIPAVVVAAILLIAGIIAMICYRKKRKGKLTLEDQATFIKKGVPIIFADELDDSKPPPSSSMPLILQEEKAPLPPPEYPNQSMPETTPLNQDTVGEYTPLRDEDPNAPPYQPPPPFTAPMEGKGSRPKNMTPYRSPPPYVPP	binds
β-sarcoglycan (protein, UniProt P82349 1-320) MAAAAAAAAATEQQGSNGPVKKSMREKAVERRNVNKEHNSNFKAGYIPIDEDRLHKTGLRGRKGNLAICVIVLLFILAVINLLITLVIWAVIRIGPNGCDSMEFHESGLLRFKQVSDMGVIHPLYKSTVGGRRNENLVITGNNQPIVFQQGTTKLSVEKNKTSITSDIGMQFFDPRTHNILFSTDYETHEFHLPSGVKSLNVQKASTERITSNATSDLNIKVDGRAIVRGNEGVFIMGKTIEFHMGGDVELKAENSIILNGTVMVSPTRLPSSSSGDQSGSGDWVRYKLCMCADGTLFKVQVTGHNMGCQVSDNPCGNTH	binds
caveolin-3 (protein, UniProt P51637 1-151) MMTEEHTDLEARIIKDIHCKEIDLVNRDPKNINEDIVKVDFEDVIAEPEGTYSFDGVWKVSFTTFTVSKYWCYRLLSTLLGVPLALLWGFLFACISFCHIWAVVPCIKSYLIEIQCISHIYSLCIRTFCNPLFAALGQVCSNIKVVLRREG	binds

Results are given in words; binding and its absence hold for the method and conditions named. Binding seen in cells or lysates may run through a third protein. Here binding means that the protein was enriched with, or labelled near, the bait; the list need not be complete. Tags and fused reporters may be left off the sequences shown.
